The entries are a selection whose mix differs from that of the whole data set. For part of these data: At the low end of the ranking, values are background and their order means little. The list shows a part of the results. For part of these data: Construct or isoform of the protein are uncertain.
What was measured:
Test in all cases: DAPPL (digital affinity profiling via proximity ligation, sequencing)
Conditions in all cases: 10 mM Tris-HCl pH 7.5, 50 mM NaCl, 1 mM DTT, 4% glycerol, room temperature, 30 min; GST-TFs on glutathione beads, 16-mer random dsDNA library, 0.1% …; high values mean tight binding; double strand, one strand shown; scale: fold enrichment (6-mer frequency, TF over GST control)
GABPA = target: T1, GABPA (UniProt Q06546)
T1 sequence: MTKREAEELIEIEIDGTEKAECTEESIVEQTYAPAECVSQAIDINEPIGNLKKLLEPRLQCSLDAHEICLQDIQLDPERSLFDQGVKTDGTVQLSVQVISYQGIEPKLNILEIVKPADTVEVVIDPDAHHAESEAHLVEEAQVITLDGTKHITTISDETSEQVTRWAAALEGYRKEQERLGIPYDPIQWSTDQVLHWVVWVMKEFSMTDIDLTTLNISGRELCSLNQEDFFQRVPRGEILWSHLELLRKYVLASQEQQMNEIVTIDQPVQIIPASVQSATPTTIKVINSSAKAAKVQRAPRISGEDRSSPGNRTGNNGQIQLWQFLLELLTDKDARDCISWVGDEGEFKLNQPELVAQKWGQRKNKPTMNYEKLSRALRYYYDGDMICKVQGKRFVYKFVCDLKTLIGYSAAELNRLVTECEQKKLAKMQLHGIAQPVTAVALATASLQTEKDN

ETS1 = target: T2, ETS1 (UniProt P14921)
T2 sequence: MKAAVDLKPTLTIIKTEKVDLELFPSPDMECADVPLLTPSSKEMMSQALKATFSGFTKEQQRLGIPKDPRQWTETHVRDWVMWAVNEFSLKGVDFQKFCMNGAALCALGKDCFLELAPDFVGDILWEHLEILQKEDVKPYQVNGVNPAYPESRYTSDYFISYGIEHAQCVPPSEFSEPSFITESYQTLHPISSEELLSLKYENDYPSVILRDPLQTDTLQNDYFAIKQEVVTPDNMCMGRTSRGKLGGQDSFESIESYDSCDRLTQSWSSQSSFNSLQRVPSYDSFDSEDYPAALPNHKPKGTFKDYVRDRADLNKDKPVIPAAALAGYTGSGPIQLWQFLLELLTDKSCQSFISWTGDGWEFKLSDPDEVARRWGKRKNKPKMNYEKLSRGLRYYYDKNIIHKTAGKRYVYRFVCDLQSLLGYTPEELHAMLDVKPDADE

SPDEF = target: T3, SPDEF (UniProt O95238)
T3 sequence: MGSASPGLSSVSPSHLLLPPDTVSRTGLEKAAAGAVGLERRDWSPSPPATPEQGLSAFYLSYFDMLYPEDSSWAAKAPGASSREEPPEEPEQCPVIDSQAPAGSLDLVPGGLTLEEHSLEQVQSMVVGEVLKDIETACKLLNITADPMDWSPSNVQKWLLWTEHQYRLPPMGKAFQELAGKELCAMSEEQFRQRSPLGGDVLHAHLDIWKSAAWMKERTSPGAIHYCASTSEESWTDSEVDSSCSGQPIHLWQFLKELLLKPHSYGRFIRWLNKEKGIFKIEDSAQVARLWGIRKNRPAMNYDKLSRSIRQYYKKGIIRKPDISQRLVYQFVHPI

Row | Sequence | binding signal (GABPA) | binding signal (ETS1) | binding signal (SPDEF)
1 | GCAGCG | 0.842 | 0.785 | 0.826
2 | CTGTCG | 0.517 | 0.559 | 0.562
3 | CAAGAC | 0.841 | 0.754 | 0.849
4 | AGAACG | 0.462 | 0.427 | 0.421
5 | GAGTCT | 0.433 | 0.409 | 0.401
6 | GGCGAT | 0.817 | 0.846 | 0.752
7 | GCGTAC | 0.913 | 0.917 | 0.842
8 | AGGGTC | 0.857 | 0.897 | 0.876
9 | ACAGGG | 0.766 | 0.828 | 0.825
10 | GCGGCG | 0.797 | 0.758 | 0.639
11 | CGTGCT | 0.872 | 0.808 | 0.805
12 | GAGTAC | 0.558 | 0.588 | 0.531
13 | CCGAGG | 0.775 | 0.71 | 0.716
14 | AGTCGG | 0.146 | 0.138 | 0.147
15 | AGGTGC | 0.72 | 0.609 | 0.592
16 | GGTTAG | 0.77 | 0.738 | 0.857
17 | GCACGT | 0.805 | 0.784 | 0.77
18 | GCCGGT | 0.615 | 0.701 | 0.657
19 | GACGTG | 0.323 | 0.313 | 0.324
20 | GCCGGG | 0.378 | 0.411 | 0.405

Row | Sequence | binding signal (GABPA) | binding signal (ETS1) | binding signal (SPDEF)
21 | CATGTC | 0.865 | 0.785 | 0.881
22 | AGGCAT | 0.845 | 0.843 | 0.825
23 | TAGACC | 0.835 | 0.916 | 0.891
24 | GAGTGT | 0.557 | 0.517 | 0.536
25 | GGTAGG | 0.651 | 0.633 | 0.641
26 | GGGACC | 0.705 | 0.652 | 0.716
27 | GTGTGA | 0.608 | 0.585 | 0.625
28 | ACAGTA | 0.903 | 0.833 | 0.88
29 | GGACGC | 0.427 | 0.364 | 0.427
30 | GAGGTA | 0.65 | 0.643 | 0.667
31 | GCGGTG | 0.529 | 0.483 | 0.54
32 | TCGGTG | 0.518 | 0.485 | 0.496
33 | CTGGGA | 0.86 | 0.828 | 0.795
34 | CCATGA | 0.944 | 0.87 | 0.844
35 | CCGTGG | 0.42 | 0.403 | 0.381
36 | CGTGCG | 0.651 | 0.706 | 0.567
37 | GTGTAG | 0.619 | 0.683 | 0.678
38 | GTGGAG | 0.44 | 0.423 | 0.402
39 | GTCGTA | 0.671 | 0.626 | 0.606
40 | GGTGTC | 0.788 | 0.893 | 0.888

Row | Sequence | binding signal (GABPA) | binding signal (ETS1) | binding signal (SPDEF)
41 | GCAAGG | 0.771 | 0.857 | 0.735
42 | GGGGCA | 0.69 | 0.692 | 0.693
43 | GAGAAG | 0.804 | 0.691 | 0.681
44 | TGGGTC | 0.651 | 0.622 | 0.68
45 | CAGCAG | 0.811 | 0.837 | 0.786
46 | CAGCCA | 0.832 | 0.824 | 0.813
47 | GGGGTC | 0.671 | 0.663 | 0.639
48 | GGACCC | 0.891 | 0.837 | 0.967
49 | AGCAAG | 0.98 | 0.888 | 0.813
50 | GCGCTA | 0.946 | 1.01 | 0.915
51 | AGATCG | 0.477 | 0.46 | 0.413
52 | GCCGCG | 0.749 | 0.783 | 0.727
53 | CTGAGT | 0.64 | 0.616 | 0.584
54 | GGAGGA | 0.246 | 0.264 | 0.23
55 | CGCATT | 0.781 | 0.787 | 0.764
56 | GGGATC | 0.649 | 0.657 | 0.752
57 | CAGACC | 0.828 | 0.767 | 0.817
58 | AGGAGT | 0.367 | 0.361 | 0.344
59 | GAGGGT | 0.554 | 0.547 | 0.52
60 | GTAGTC | 0.71 | 0.712 | 0.649
